Test results reported in publication PMC12069340 (Frontiers in Cellular and Infection Microbiology, 2025).
Counter-ions that a name gives are not always drawn.

Assays:
in vitro = conditions: human, Relative Viability (%)
U937 cells = conditions: 20 µM

With COc1cc2c(cc1OC)C(=O)C(CC1CCN(Cc3ccccc3)CC1)C2 (centres unmarked) [Donepezil HCl] the viability at 20 µM (in vitro) was 99%.
With CN1c2ccccc2C(NCCCCCCC(=O)[O-])c2ccc(Cl)cc2S1(=O)=O.[Na+] (centres unmarked) [Tianeptine sodium] the “Relative Viability (%)” value (U937 cells) was 120.3.
